Experimental data: PubChem BioAssay AID1159578 (Peter MacCallum Cancer Centre, 2015)

- Screen: 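Knock-downs that alter how fast lymphatic endothelial cells migrate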 (primary screen)
- Cells: human lymphatic endothelial cells
- Reagents: siRNA pool against human genes, 40 nM
- Duration: 48 h after transfection
- Detection: 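Cells stained with dye and imaged after a scratch; covered wound area and nuclei counted, duplicates averaged, migration set against mock wells and turned into a robust z-score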
- Scale: migration robust z-score: higher = faster migration into the scratch; migration relative to mock: higher = more scratch area covered than mock; nuclei per well: higher = more cells in the well
- Active means: 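Migration changed when robust z exceeds 2 or falls below -2 and mean nuclei number is at least 3300; otherwise not called changed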
- Meaning of the calls: active = migration changed; inactive = no migration change, or too few cells
Here is one part, drawn at random, of about 18,000 deposited reagents. About 1,030 of them (5.7%) were called active. 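Inactive calls also include pools with fewer than 3300 nuclei, whose migration was not assessed.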 Raw values vary from plate to plate and are shown uncorrected. Reagent sequences are not shown.

gene,migration robust z-score,migration class with cell-count check,migration relative to mock,"nuclei per well, duplicate mean",outcome
CEACAM4,-0.72,migration z between -2 and 2; enough cells,0.7,5088,inactive
INO80E,1.52,migration z between -2 and 2; enough cells,1.27,6127,inactive
GAR1,1.48,migration z between -2 and 2; enough cells,1.09,4974,inactive
AVPR1A,-0.86,migration z between -2 and 2; enough cells,0.64,4630,inactive
EZR,0.19,migration z between -2 and 2; enough cells,0.93,5600,inactive
LMTK2,-1.4,migration z between -2 and 2; enough cells,0.54,4702,inactive
ZNF543,-0.72,migration z between -2 and 2; enough cells,0.7,5558,inactive
ERP27,-1.45,migration z between -2 and 2; enough cells,0.51,5294,inactive
SFXN4,-0.46,migration z between -2 and 2; enough cells,0.72,6063,inactive
COQ2,-0.1,migration z between -2 and 2; enough cells,0.78,4093,inactive
CHML,-0.36,migration z between -2 and 2; enough cells,0.74,5290,inactive
PPP1R3D,-1.87,migration z between -2 and 2; enough cells,0.44,5694,inactive
METTL2B,-0.42,migration z between -2 and 2; enough cells,0.78,5628,inactive
RUVBL2,-0.78,migration z between -2 and 2; enough cells,0.66,5202,inactive

Look-ups from the entries so far.
LMTK2, outcome → inactive
For “nuclei per well, duplicate mean”, CHML has 5290

More reagents follow:
gene,migration robust z-score,migration class with cell-count check,migration relative to mock,"nuclei per well, duplicate mean",outcome
PCDHB9,-0.46,migration z between -2 and 2; enough cells,0.76,5791,inactive
ADRM1,-0.3,migration z between -2 and 2; enough cells,0.81,6106,inactive
CNTROB,-0.19,migration z between -2 and 2; enough cells,0.84,4152,inactive
TINAG,0.78,migration z between -2 and 2; enough cells,0.96,5360,inactive
LILRB3,-2.1,migration z below -2; enough cells,0.34,3721,active
BPIFA2,-0.19,migration z between -2 and 2; enough cells,0.84,5369,inactive
PPCS,0.68,migration z between -2 and 2; enough cells,0.94,5568,inactive
IFTAP,0.84,migration z between -2 and 2; enough cells,1.1,5855,inactive
PPIE,0.07,migration z between -2 and 2; enough cells,0.9,6206,inactive
KMT2B,1.22,migration z between -2 and 2; enough cells,1.04,5314,inactive
IFNL2,0.28,migration z between -2 and 2; enough cells,0.96,6217,inactive
SERINC1,-1.88,migration z between -2 and 2; enough cells,0.4,6580,inactive
ZNF224,-0.03,migration z between -2 and 2; enough cells,0.88,5820,inactive
GPD1,-0.98,migration z between -2 and 2; enough cells,0.62,5384,inactive
CCDC27,0.39,migration z between -2 and 2; enough cells,0.98,5210,inactive
TOMM40L,-0.65,migration z between -2 and 2; enough cells,0.72,4670,inactive
TPP2,-0.05,migration z between -2 and 2; enough cells,0.79,6479,inactive
MNX1,-0.34,migration z between -2 and 2; enough cells,0.74,4959,inactive
SPATA31H1,-0.52,migration z between -2 and 2; enough cells,0.75,5496,inactive
UBE2NL,-1.35,migration z between -2 and 2; enough cells,0.54,5220,inactive
IGFBP6,0.45,migration z between -2 and 2; enough cells,1,4807,inactive
SART1,-0.3,migration z between -2 and 2; enough cells,0.81,6358,inactive
SMTN,1.87,migration z between -2 and 2; enough cells,1.37,5052,inactive
E2F6,0.7,migration z between -2 and 2; enough cells,0.94,6882,inactive
PGF,0.68,migration z between -2 and 2; enough cells,0.94,6052,inactive
